According to patent publication US20260248762A1, “RRX-001 FOR […]-INFARCT ADVERSE V[…] COMPLICATIONS” (EpicentRx, Inc., priority 2022, published 2026):
At least one structure is not confirmed: it was looked up by name or label, or the drawing left a doubt.

What was measured:
Male Wistar rats [1] = settings: rat, in vivo
caspase 3 = experiment: Caspase 3 activity after I/R; type: in vivo, rat; settings: Day 2; FIG. 8B
Male Wistar rats [2] = experiment: Echocardiography after myocardial ischemia reperfusion; type: in vivo, rat
IL-1β and IL-18 = IL-1β and IL-18 levels in peripheral blood by ELISA; type: in vivo, rat; settings: Day 2, versus increase after I/R
[3] = test system: CASP9, CASP 7, CASP 3, and PARP; experiment: mRNA expression of apoptosis genes after I/R; type: in vivo, rat; settings: Day 2; fold change relative to sham; FIG. 8A
Male Wistar rats [4] = experiment: Serum biomarkers of myocardial injury post-I/R; type: in vivo, rat
[5] = test system: NF-κB, NLRP3 inflammasome, mature caspase-1, and IL-1β; experiment: Myocardial messenger RNA and protein levels of inflammatory genes in infarcted rats; type: in vivo, rat; settings: compared with the controls
Male Wistar rats [6] = experiment: Histopathological examination of hearts (H&E, Masson's trichrome); type: in vivo, rat
[7] = increase after I/R compared to sham, RRx-001 treatment

For O=C(CBr)N1CC([N+](=O)[O-])([N+](=O)[O-])C1 [RRx-001, 2-bromo-1-(3,3-dinitroazetidin-1-yl)ethan-1-one], the infarct expansion (Male Wistar rats [1]) was “decreased”, the infarct size (Male Wistar rats [1]) was “reduces” and the “myocardial infarct area (MI) / I/R-induced cardiac tissue damage” value (Male Wistar rats [1]) was “ameliorated I/R-induced cardiac tissue damage”. The “caspase 3 enzyme activity” value (caspase 3) was “reduced”, the “early relaxation velocity (E′)” value (Male Wistar rats [2]; echocardiography after I/R, FIG. 2C) was “positive effects” and the “E′/E ratio of diastolic function” value (Male Wistar rats [2]; echocardiography after I/R, FIG. 2D) was “positive effects”. The “left ventricular end-diastolic diameter (LVEDD)” value (Male Wistar rats [2]; [7]) was “mitigated the increase, but did not prevent their increase”, the “left ventricular end-systolic diameter (LVESD)” value (Male Wistar rats [2]; [7]) was “mitigated the increase, but did not prevent their increase” and the “heart ejection fraction (EF)” value (Male Wistar rats [2]; rats subjected to I/R, RRx-001 about 0.5 mg/kg i.v. during reperfusion (third group 110), FIG. 2A) was “preserved”. For the same compound, the “fractional shortening (FS)” value (Male Wistar rats [2]; rats subjected to I/R, RRx-001 about 0.5 mg/kg i.v. during reperfusion (third group 110), FIG. 2B) was “preserved”, the LV systolic function (Male Wistar rats [2]; treatment after reperfused MI) was “increased LV systolic function to levels approaching normal values” and the IL-1β level (IL-1β and IL-18; FIG. 7C) was “reduced”. For the same compound, the IL-18 level (IL-1β and IL-18; FIG. 7D) was “reduced”, the “apoptotic caspases mRNA expression (I/R-associated changes)” value [3] was “reduced the I/R-associated changes” and the “serum level of lactate dehydrogenase (LDH)” value (Male Wistar rats [4]; Day 2, FIG. 5A) was “decreased significantly”. For the same compound, the “serum level of creatine phosphokinase-MB (CK-MB)” value (Male Wistar rats [4]; Day 2, FIG. 5B) was “decreased significantly”, the “serum level of cardiac Troponin 1 (cTn1)” value (Male Wistar rats [4]; Day 2, FIG. 5C) was “decreased significantly” and the “myocardial messenger RNA and protein levels of IL-1β” value [5] was “significantly attenuated”. The “myocardial messenger RNA and protein levels of NF-κB” value [5] was “significantly attenuated”, the “myocardial messenger RNA and protein levels of NLRP3 inflammasome” value [5] was “significantly attenuated” and the “myocardial messenger RNA and protein levels of mature caspase-1” value [5] was “significantly attenuated”. The cardiomyocytes necrosis (Male Wistar rats [6]; FIG. 4) was “reduced”, the fibrous hyperplasia (Male Wistar rats [6]; FIG. 4) was “reduced” and the inflammatory cell infiltration (Male Wistar rats [6]; FIG. 4) was “reduced”. The “myocardial tissue (degree of damaged myocardium and fibrotic scar tissue)” value (Male Wistar rats [6]; FIG. 4) was “preserved myocardial tissue”, the “degree of LV fibrosis” value (Male Wistar rats [6]; histology) was “reduction” and the atrial fibrosis (Male Wistar rats [6]; rats subjected to I/R, H&E and Masson's trichrome, FIG. 6) was “reduced”. The collagen (Male Wistar rats [6]; rats subjected to I/R, Masson's trichrome, FIG. 6) was “reduced”, the infarct scarring (Male Wistar rats [6]; treatment after reperfused MI) was “decreased” and the myocardial hypertrophy (Male Wistar rats [6]; treatment after reperfused MI) was “reduced”.
